PMC4752240
No constants are given. Whether binding was seen depends on the method and setting. Tags and fused reporters may be left off the sequences shown.

Target: CDC20.3, yeast two-hybrid fusion
Assay: two-hybrid; bait fused with the GAL4 DNA binding domain (pDEST32), prey fused with the GAL4 activation domain (pDEST22); mating of yeast strains AH109 and Y187; growth on -His (weak interaction) or -His -Ade (strong interaction); three replicates

binding: no binding
B1: TDM1 (THREE DIVISION MUTANT1), yeast two-hybrid fusion (protein, UniProt Q9SUC3 1-434)
chain: MCPCVERRAPPGVYYTPPPARTSDHVAAMPMTERRRPPYSCSSSSERRDPFHIVHKVPSGDSPYVRAKHAQLIDKDPNRAISLFWTAINAGDRVDSALKDMAVVMKQLGRSDEGIEAIKSFRYLCSFESQDSIDNLLLELYKKSGRIEEEAVLLEHKLQTLEQGMGFGGRVSRAKRVQGKHVIMTIEQEKARILGNLGWVHLQLHNYGIAEQHYRRALGLERDKNKLCNLAICLMRMSRIPEAKSLLDDVRDSPAESECGDEPFAKSYDRAVEMLAEIESKKPEADLSEKFYAGCSFVNRMKENIAPGTANKNYSDVSSSPASVRPNSAGLYTQPRRCRLFEEETRGAARKLLFGKPQPFGSEQMKILERGEEEPMKRKKLDQNMIQYLHEFVKDTADGPKSESKKSWADIAEEEEAEEEEEERLQGELKTAEM
